Data as given in PubChem BioAssay AID1259308 (NCATS, 2017).
This is a random part of about 59,000 deposited reagents. About 1,510 of all reagents (2.6%) were called active. 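Calls use total luciferase alone and ignore viability, so some active siRNAs may act by altering cell number.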 Reagents against one gene are numbered here. Further read-outs or replicates are left out here.

Assay: 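Genes whose loss raises luciferase production in HEK293 cells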 (primary screen)
Cells: human HEK293 embryonic kidney cells stably expressing firefly luciferase (HEK-CMV-Luc2-Hygro)
Reagent: single siRNA against human genes, 0.8 pmol siRNA per well
Duration: 72 h
Detection: 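Luciferase light (ONE-Glo) measured on one replicate plate set and viability (CellTiter-Glo) on the other, scaled to a negative control siRNA, with robust z-scores and luciferase per cell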
Reading the numbers: total luciferase, z-score and total luciferase, % of control: higher = more reporter protein produced
Active means: 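An siRNA counts as active if its total luciferase robust z-score exceeds 3; genes with two or more such siRNAs out of three were retested with fresh siRNAs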
Calls: active = raised luciferase; inactive = no rise

"total luciferase, z-score","total luciferase, % of control",Call,gene knocked down,reagent
0.397,89.8,inactive,LINC01242,1
0.319,88.2,inactive,LINC01242,2
-1.9,44,inactive,LINC01242,3
-1.23,57.4,inactive,TAC1,1
3.73,156,active,TAC1,2
0.293,87.7,inactive,TAC1,3
-1.9,44.1,inactive,CTTNBP2,1
-1.2,57.9,inactive,CTTNBP2,2
0.327,88.4,inactive,CTTNBP2,3
-0.944,63.1,inactive,ZNF137P,1
0.78,97.4,inactive,ZNF137P,2
0.945,101,inactive,ZNF137P,3
-0.26,76.7,inactive,PHC1P1,1
-0.729,67.4,inactive,PHC1P1,2
2.29,127,inactive,PHC1P1,3
2.01,122,inactive,TIGD4,1
1.09,104,inactive,TIGD4,2
-0.505,71.8,inactive,TIGD4,3
-0.0422,81,inactive,TUFT1,1
-0.843,65.1,inactive,TUFT1,2
-0.752,66.9,inactive,TUFT1,3
0.916,100,inactive,ZNF224,1
0.354,88.9,inactive,ZNF224,2
-0.0126,81.6,inactive,ZNF224,3
1.47,111,inactive,ZSCAN2,1
2.94,140,inactive,ZSCAN2,2
-0.416,73.6,inactive,ZSCAN2,3
0.748,96.8,inactive,SCAMP2,1
0.334,88.5,inactive,SCAMP2,2
1.31,108,inactive,SCAMP2,3
0.59,93.6,inactive,PROC,1
-1.13,59.3,inactive,PROC,2
1.03,102,inactive,PROC,3
1.16,105,inactive,WBP11,1
4.73,176,active,WBP11,2
2.01,122,inactive,WBP11,3
0.24,86.7,inactive,PLXNA3,1
-1.28,56.5,inactive,PLXNA3,2
-0.435,73.2,inactive,PLXNA3,3

Targets listed so far whose gene name begins with C or c (3):
"total luciferase, z-score","total luciferase, % of control",Call,gene knocked down,reagent
-1.9,44.1,inactive,CTTNBP2,1
-1.2,57.9,inactive,CTTNBP2,2
0.327,88.4,inactive,CTTNBP2,3
